According to patent publication US8455240B2, “Use of thermophilic sulphate-reducing archaea for the implementation of a process for the degradation of hydrocarbons” (Institut de Recherche pour le Development (I.R.D.), priority 2005, dated 2013):
At least one compound was matched to its structure with a doubt left.

Tests used:
[1] = system: strain L-3; test: Degradation of different substrates by the strain L-3 as a function of the electron acceptor; assay type: cell-based, Archaeoglobus fulgidus CNCM I-3465 (strain L-3); conditions: thiosulphate or sulphate as electron acceptor
Protocol: (§1) Experimentally, 4 ml of Cord-Ruwish reagent comprising 50 mmol/l of HCl and 5 mmol/l of CuSO4 are added to 0.1 ml of sample. Copper sulphate (CuSO4) by reacting with hydrogen sulphide (H2S), forms a copper sulphide precipitate (CuS) after the reaction: CuSO4+H2S→CuS+H2SO4
(§2) According to this method, the CuS is assayed by spectrophotometry at 480 nm. The readings are carried out against a blank constituted by 4 ml of Cord-Ruwish reagent.
(§3) The analysis and quantification of the metabolites are carried out by HPLC by measuring the disappearance of the substrate and the appearance of different metabolism products.
(§4) The study of the degradation abilities of different substrates of the strain L-3 was based on a comparison with the collection strain, Archaeoglobus fulgidus (DSM 4304). The degradation of the substrates, by the two strains was monitored by a measurement of the cell biomass at 580 nm, a sulphide assay produced according to the Cord-Ruwish method, a study of the degradation metabolites by HPLC, completed by a CO2 assay with a GPC-Katharometer.
(§5) Two series of tests were prepared, one with thiosulphate, the other with sulphate as an electron acceptor.

[2] = system: Archaeoglobus fulgidus (DSM 4304); test: Degradation of different substrates by A. fulgidus as a function of the electron acceptor; assay type: cell-based; conditions: thiosulphate or sulphate as electron acceptor
Protocol: as §1, §2, §3, §4, §5

CC(=O)C(=O)O [Pyruvate, pyruvate]
ability of the strain L-3 to degrade the substrate [1]: capable of degrading
ability of Archaeoglobus fulgidus to oxidize the substrate [2]: capable of oxidizing
